In article PMC5428264, “Dentin sialoprotein facilitates dental mesenchymal cell differentiation and dentin formation” (Scientific Reports, 2017):
These are yes or no findings as the source states them, for the method shown. Binding seen in cells or lysates may run through a third protein. Some binding calls cover weakened binding; strength is not graded here. For some of these results: Sequences can lack the tags named with a protein.

Protein sequences, listed by entry. Tags and fused reporters are not part of them.
UniProt P34152: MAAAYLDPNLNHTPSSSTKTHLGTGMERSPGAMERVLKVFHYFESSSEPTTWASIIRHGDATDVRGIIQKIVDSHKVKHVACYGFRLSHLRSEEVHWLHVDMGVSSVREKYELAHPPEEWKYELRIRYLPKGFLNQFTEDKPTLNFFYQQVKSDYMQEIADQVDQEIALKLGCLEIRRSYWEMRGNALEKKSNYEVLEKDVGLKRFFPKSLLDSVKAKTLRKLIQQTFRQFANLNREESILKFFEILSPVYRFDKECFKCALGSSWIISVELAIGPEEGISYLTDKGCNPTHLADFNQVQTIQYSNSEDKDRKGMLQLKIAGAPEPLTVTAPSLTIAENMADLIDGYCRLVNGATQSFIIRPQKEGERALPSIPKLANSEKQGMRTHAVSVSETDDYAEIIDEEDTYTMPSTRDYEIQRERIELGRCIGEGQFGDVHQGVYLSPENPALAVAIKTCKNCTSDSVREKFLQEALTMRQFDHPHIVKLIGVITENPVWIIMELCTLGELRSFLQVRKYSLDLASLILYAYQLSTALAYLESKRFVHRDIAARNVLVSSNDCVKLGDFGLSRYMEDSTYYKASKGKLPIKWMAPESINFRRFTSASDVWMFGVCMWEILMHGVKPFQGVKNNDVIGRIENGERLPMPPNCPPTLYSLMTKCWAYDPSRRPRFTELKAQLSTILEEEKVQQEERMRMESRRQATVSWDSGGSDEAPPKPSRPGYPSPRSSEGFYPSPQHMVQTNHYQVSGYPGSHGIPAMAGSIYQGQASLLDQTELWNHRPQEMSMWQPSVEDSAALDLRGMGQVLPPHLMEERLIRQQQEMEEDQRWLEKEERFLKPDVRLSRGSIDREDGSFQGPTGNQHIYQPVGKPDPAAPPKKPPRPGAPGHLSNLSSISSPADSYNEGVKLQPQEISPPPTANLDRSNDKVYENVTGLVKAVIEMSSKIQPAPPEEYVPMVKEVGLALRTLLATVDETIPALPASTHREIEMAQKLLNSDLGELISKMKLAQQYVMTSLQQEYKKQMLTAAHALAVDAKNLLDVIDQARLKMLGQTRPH

T1: Myc-Ocln (mouse) (UniProt Q61146)
T1 sequence: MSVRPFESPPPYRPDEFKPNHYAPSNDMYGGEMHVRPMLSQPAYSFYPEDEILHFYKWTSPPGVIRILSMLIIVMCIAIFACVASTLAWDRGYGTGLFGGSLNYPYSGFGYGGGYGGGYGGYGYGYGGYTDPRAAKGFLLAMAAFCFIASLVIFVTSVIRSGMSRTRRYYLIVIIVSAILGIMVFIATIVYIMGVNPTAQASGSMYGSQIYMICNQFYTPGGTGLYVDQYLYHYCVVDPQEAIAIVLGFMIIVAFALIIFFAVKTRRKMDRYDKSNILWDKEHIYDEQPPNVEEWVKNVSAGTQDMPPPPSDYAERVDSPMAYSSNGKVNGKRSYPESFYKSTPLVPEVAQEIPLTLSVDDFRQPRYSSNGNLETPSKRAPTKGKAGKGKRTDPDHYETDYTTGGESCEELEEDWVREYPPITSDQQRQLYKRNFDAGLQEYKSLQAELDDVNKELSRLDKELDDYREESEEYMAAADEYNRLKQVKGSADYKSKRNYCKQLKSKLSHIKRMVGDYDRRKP

T2: GST-DSP fusion protein (recombinant dentin sialoprotein 1–458) (mouse) (UniProt P97399)
T2 sequence: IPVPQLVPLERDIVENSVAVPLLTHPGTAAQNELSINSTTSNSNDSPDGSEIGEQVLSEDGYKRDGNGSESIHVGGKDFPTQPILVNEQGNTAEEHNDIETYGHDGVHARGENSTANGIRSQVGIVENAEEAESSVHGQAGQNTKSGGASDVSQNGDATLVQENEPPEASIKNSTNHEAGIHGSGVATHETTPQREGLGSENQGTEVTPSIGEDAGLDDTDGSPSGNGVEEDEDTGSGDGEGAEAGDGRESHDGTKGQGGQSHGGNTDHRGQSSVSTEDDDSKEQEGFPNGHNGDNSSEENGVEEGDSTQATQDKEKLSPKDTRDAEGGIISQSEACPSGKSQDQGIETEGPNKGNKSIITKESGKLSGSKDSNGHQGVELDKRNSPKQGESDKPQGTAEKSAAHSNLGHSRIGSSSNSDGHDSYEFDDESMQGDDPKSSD

T3: OclnL2 (occludin extracellular loop 2, aa 194–241) expressed in HEK-293 cells (mouse) (UniProt Q61146)
T3 sequence: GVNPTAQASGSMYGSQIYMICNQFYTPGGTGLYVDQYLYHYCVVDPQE


Experiments:
Myc-Ocln (mouse) = molecular target: T1, Myc-Ocln (mouse); experiment: co-IP; HEK-293 cells cotransfected with Myc-Ocln and GFP-FAK, 48 h; precipitated with Myc or GFP antibody; blots with Ocln and FAK antibodies
[1] = molecular target: T2, GST-DSP fusion protein (recombinant dentin sialoprotein 1–458) (mouse); experiment: pull-down; GST-DSP fusion protein incubated with 1 ml lysate of mouse odontoblast-like cells (MO-6G3) in 50 mM Tris-HCl pH 7.4, 150 mM NaCl, Triton X100 overnight at 4 °C; glutathione agarose beads; eluted with reduced glutathione; Western blots with antibodies to 110 candidates; only the target purified
[2] = molecular target: T3, OclnL2 (occludin extracellular loop 2, aa 194–241) expressed in HEK-293 cells (mouse); experiment: co-IP; HEK-293 cells transfected with Myc-Ocln and Flag-DSP or Myc-DSP and Flag-Ocln (and fragments), 48 h; lysis in 50 mM Tris-HCl pH 7.4, 150 mM NaCl, 1 mM EDTA, 1% Triton X-100; precipitated with Myc antibody; blots with anti-Myc, anti-DSP or anti-Ocln

binding [1] | Molecule | other results
– | GFP-FAK (focal adhesion kinase) (from UniProt P34152 1-1052) (enzyme) | binding (Myc-Ocln (mouse)): binds
binds | integrin β6 (receptor, UniProt Q9Z0T9 22-787) GCAWGGAESCSDCLLTGPHCAWCSQENFTHLSGAGERCDTPANLLAKGCQLPFIENPVSRIEVLQNKPLSVGRQKNSSDIVQIAPQSLVLKLRPGREQTLQVQVRQTEDYPVDLYYLMDLSASMDDDLNTIKELGSRLAKEMSKLTSNFRLGFGSFVEKPVSPFMKTTPEEITNPCSSIPYFCLPTFGFKHILPLTDDAERFNEIVRKQKISANIDTPEGGFDAIMQAAVCKEKIGWRNDSLHLLVFVSDADSHFGMDSKLAGIVIPNDGLCHLDHRNEYSMSTVLEYPTIGQLIDKLVQNNVLLIFAVTQEQVHLYENYAKLIPGATVGLLQKDSGNILQLIISAYEELRSEVELEVLGDTEGLNLSFTALCNNGVLFPHQKKCSHMKVGDTASFNVTVSVSNCEKRSRNLIIKPVGLGDTLEILVSAECDCDCQREIETNSSKCHNGNGSFQCGVCTCNPGHMGPHCECGEDMVSTDSCKESPGHPSCSGRGDCYCGQCICHLSPYGSIYGPYCQCDNFSCLRHKGLLCGDNGDCDCGECVCRDGWTGEYCNCTTNRDSCTSEDGVLCSGRGDCVCGKCVCRNPGASGPTCERCPTCGDPCNSKRSCIECYLSADGQAQEECADKCKAIGATISEEDFSKDTSVSCSLQGENECLITFLITTDNEGKTIIHNINEKDCPKPPNIPMIMLGVSLAILLIGVVLLCIWKLLVSFHDRKEVAKFEAERSKAKWQTGTNPLYRGSTSTFKNVTYKHREKHKAGLSSDG | –
binds | occludin (Ocln) (receptor, UniProt Q61146 1-521) MSVRPFESPPPYRPDEFKPNHYAPSNDMYGGEMHVRPMLSQPAYSFYPEDEILHFYKWTSPPGVIRILSMLIIVMCIAIFACVASTLAWDRGYGTGLFGGSLNYPYSGFGYGGGYGGGYGGYGYGYGGYTDPRAAKGFLLAMAAFCFIASLVIFVTSVIRSGMSRTRRYYLIVIIVSAILGIMVFIATIVYIMGVNPTAQASGSMYGSQIYMICNQFYTPGGTGLYVDQYLYHYCVVDPQEAIAIVLGFMIIVAFALIIFFAVKTRRKMDRYDKSNILWDKEHIYDEQPPNVEEWVKNVSAGTQDMPPPPSDYAERVDSPMAYSSNGKVNGKRSYPESFYKSTPLVPEVAQEIPLTLSVDDFRQPRYSSNGNLETPSKRAPTKGKAGKGKRTDPDHYETDYTTGGESCEELEEDWVREYPPITSDQQRQLYKRNFDAGLQEYKSLQAELDDVNKELSRLDKELDDYREESEEYMAAADEYNRLKQVKGSADYKSKRNYCKQLKSKLSHIKRMVGDYDRRKP | –
– | DSPf5 (DSP aa 363–458) expressed in HEK-293 cells (domain or fragment, UniProt P97399 363-458) GIETEGPNKGNKSIITKESGKLSGSKDSNGHQGVELDKRNSPKQGESDKPQGTAEKSAAHSNLGHSRIGSSSNSDGHDSYEFDDESMQGDDPKSSD | binding [2]: binds
